Substitutions are numbered along the chain they refer to. Results are given in words; binding and its absence hold for the method and conditions named. Some results given as binding are weak or reduced against the parent protein; the word gives no strength.

By UniProt entry, the sequences of proteins in these tests, tags left out. Where a name states a change or a piece, a line headed by the entry shows the natural chain unless it says otherwise.
UniProt P78324: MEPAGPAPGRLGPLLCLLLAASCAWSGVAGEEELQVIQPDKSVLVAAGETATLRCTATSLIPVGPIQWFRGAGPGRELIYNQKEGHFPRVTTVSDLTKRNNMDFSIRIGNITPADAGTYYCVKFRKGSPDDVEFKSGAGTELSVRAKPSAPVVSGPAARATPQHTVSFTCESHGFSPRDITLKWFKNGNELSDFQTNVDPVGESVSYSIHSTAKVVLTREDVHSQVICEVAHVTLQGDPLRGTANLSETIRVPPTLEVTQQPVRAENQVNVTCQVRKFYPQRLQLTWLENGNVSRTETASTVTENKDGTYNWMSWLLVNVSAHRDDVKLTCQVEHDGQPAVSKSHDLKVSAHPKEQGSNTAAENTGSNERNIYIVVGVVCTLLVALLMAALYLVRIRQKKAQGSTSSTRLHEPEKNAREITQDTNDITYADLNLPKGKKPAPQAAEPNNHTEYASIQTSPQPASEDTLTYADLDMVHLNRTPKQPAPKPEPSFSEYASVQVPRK

Assay [1] addresses human SIRPA_V10 (human) (UniProt P78324). Description: cell-based ELISA, transfected 293α cells, 0 to 10,000 ng/ml; cD13 is the reference. On the technique in general: In an ELISA, binding on a coated surface is turned into a signal by an enzyme label.
Assay [2] shares this target. Description: cell-based ELISA on 293α cells expressing FLAG-tagged SIRPA_V10; Abs 490 normalized to FLAG tag [ii].
The target in assay [3] is SIRPA_V2_IgV (human). Description: gel filtration (Superdex 75) of the complex, then crystallization. On the technique in general: In gel filtration, larger molecules generally elute earlier.
Assay [4] concerns the target human SIRPA_V10 (human) (UniProt P78324). Description: cell-based ELISA, transfected 293α cells, 10,000 ng/mL, normalized to FLAG.
For assay [5], the target named is human SIRPA_V2_IgV_IgC1 variant (human) (UniProt P78324). The assay is described as above.
For assay [6] the target is unchanged. In words: cell-based ELISA on 293α cells expressing the FLAG-tagged construct, antibody 10,000 ng/mL; Abs 490 normalized to FLAG tag [panel B].
Assay [7] concerns the target human SIRPA_V10 (human) (UniProt P78324). In words: cell-based ELISA, transfected 293α cells.
Assay [8] concerns the target SIRPA_V2_IgV (human). Description: SPR Biacore T200, antibody captured, antigen as analyte.
The target of assay [9] is human SIRPA_V10 (human) (UniProt P78324). Description: cell-based ELISA, transfected 293α cells, 0 to 10,000 ng/ml.

B1: human chimeric anti-SIRPA antibody cD13 (antibody, human IgG4 S228P, kappa, F234A L235A, V domains shown)
VH: EVQLVESGGGLVQPGRSLKLSCLASGFTFSDYGMIWVRQAPGKGLEWVASISSSSSYIYYADTVKGRFTISRENAKNTLFLHMTSLRSEDTALYYCARRYYGFNYPFDYWGQGVMVTVSS
VL: DTVLTQSPALAVSLGQRVTISCGASKSVRTYMHWYQQKSGQQPKLLIYSASNLEAGVPSRFSGSGSGTDFTLTIDPVEADDIANYYCQQSNEPPYTFGAGTKLELKR
Regarding B1, the binding entry with human SIRPA_V10 (human) [1] and in the assay with human SIRPA_V10 (human) [2] was “binds” throughout.

B2: Fab fragment of the cD13 antibody (Fab, V domains shown)
VH: B1 VH
VL: B1 VL
As to B2, the binding entry with SIRPA_V2_IgV (human) [3] is “binds”.

B3: rat anti-human SIRPA monoclonal antibody D13 (antibody, V domains shown)
VH: B1 VH
VL: DTVLTQSPALAVSLGQRVTISCGASKSVRTYMHWYQQKSGQQPKLLIYSASNLEAGVPSRFSGSGSGTDFTLTIDPVEADDIANYYCQQSNEPPYTFGAGTKLELK
For the molecule B3, the binding entry (with human SIRPA_V10 (human) [4]; in assay [5]; in assay [6]; with human SIRPA_V10 (human) [7]) was “binds” in each case.

B4: rat anti-human SIRPA monoclonal antibody F44 (antibody, V domains shown)
VH: EVQLVESGGGLVQPGRSLKLSCAASGFTFSNYYMAWVRQAPTKGLEWVTYITTGGGSTYFRDSVKGRFTISRDNAESTLYLQMDSLRSEDTATYYCTAANYGGSYFDYWGQGVMVTVSS
VL: DVQMTQSPSNLAASPGESVSINCKASKSISKYLAWYQQKPGKANKLLIYSGSTLQSGTPSRFSGSGSGTDFTLTIRNLEPEDFGLYYCQQHNEYPPTFGAGTKLELK
Consider B4, for which the binding entry (with human SIRPA_V10 (human) [4]; in assay [5]; in [6]; with human SIRPA_V10 (human) [7]) was “binds” each time.

B5: OSE-172 (antibody, human IgG4 S228P, kappa, V domains shown)
VH: EVQLVQSGAEVKKPGESLRISCKASGYSFTSYWVHWVRQMPGKGLEWMGNIDPSDSDTHYSPSFQGHVTLSVDKSISTAYLQLSSLKASDTAMYYCVRGGTGTLAYFAYWGQGTLVTVSS
VL: DVVMTQSPLSLPVTLGQPASISCRSSQSLVHSYGNTYLYWFQQRPGQSPRLLIYRVSNRFSGVPDRFSGSGSGTDFTLKISRVEAEDVGVYYCFQGTHVPYTFGGGTKVEIKR
Take B5: the binding entry with SIRPA_V2_IgV (human) [8] is listed as “no binding (tested: antigen 0.25 to 16 nM)”.

B6: rat anti-human SIRPA monoclonal antibody F63 (antibody, V domains shown)
VH: QVQLKESGPGLVQPSETLSLTCTVSGFSLASYSLSWVRQPSGKGPEWMGRMYYDGDTAYNSALKSRLSISRDTSKNQVFLKMNSLQTDDTGTYYCTRDRSMFGTDYPHWYFDFWGPGTMVTVSS
VL: QFTLTQPKSVSGALRSTITIPCERSSGDIGDSYVSWYQRHLGRPPINVIYADDQRPSEVSDRFSGSIDSSSNSASLTITNLQMDDEADYFCQSYDSKIDIFGGGTKLTVL
Take B6: the binding entry (with human SIRPA_V10 (human) [4]; in [5]; in assay [6]; with human SIRPA_V10 (human) [7]) was “binds” each time.

B7: humanized anti-SIRPA antibody hD13_H1L3 (antibody, human IgG4 S228P, kappa, F234A L235A, V domains shown)
VH: QVQLVESGGGVVQPGRSLRLSCAASGFTFSDYGMIWVRQAPGKGLEWVASISSSSSYIYYADSVKGRFTISRDNSKNRLYLQMNSLRAEDTAVYYCARRYYGFNYPFDYWGQGTMVTVSS
VL: DTQLTQSPSSLSASVGQRVTITCGASKSVRTYMHWYQQKPGKQPKLLIYSASNLEAGVPSRFSGSGSGTDFTLTISSLQPEDFATYYCQQSNEPPYTFGQGTKLEIKR
Turning to B7, the binding entry in the assay with human SIRPA_V10 (human) [2] and with human SIRPA_V10 (human) [9] was “binds” throughout.

B8: humanized anti-SIRPA antibody hD13_H1L4 (antibody, human IgG4 S228P, kappa, F234A L235A, V domains shown)
VH: B7 VH
VL: DTVLTQSPDSLAVSLGQRATINCGASKSVRTYMHWYQQKPGQQPKLLIYSASNLEAGVPSRFSGSGSGTDFTLTISSLQAEDVAVYYCQQSNEPPYTFGQGTKVEIKR
For B8, the binding result with human SIRPA_V10 (human) [2] and with human SIRPA_V10 (human) [9] was “binds” in each case.

B9: humanized anti-SIRPA antibody hD13_H2L3 (antibody, human IgG4 S228P, kappa, F234A L235A, V domains shown)
VH: B7 VH with Q1E, R78T
VL: B7 VL
Consider B9, for which the binding result with human SIRPA_V10 (human) [2] and with human SIRPA_V10 (human) [9] was “binds” in each case.

B10: humanized anti-SIRPA antibody hD13_H2L2 (antibody, human IgG4 S228P, kappa, F234A L235A, V domains shown)
VH: B7 VH with Q1E, R78T
VL: B7 VL with D1A, T2I, Q43A
Consider B10, for which the binding entry in the assay with human SIRPA_V10 (human) [2] and with human SIRPA_V10 (human) [9] was “binds” in each case.

The record behind these values is US20260098102A1.
